Results published in PMC6536566.

T1: VN-SAPK10 (rice (Oryza sativa)) (UniProt Q75H77)
T1 sequence: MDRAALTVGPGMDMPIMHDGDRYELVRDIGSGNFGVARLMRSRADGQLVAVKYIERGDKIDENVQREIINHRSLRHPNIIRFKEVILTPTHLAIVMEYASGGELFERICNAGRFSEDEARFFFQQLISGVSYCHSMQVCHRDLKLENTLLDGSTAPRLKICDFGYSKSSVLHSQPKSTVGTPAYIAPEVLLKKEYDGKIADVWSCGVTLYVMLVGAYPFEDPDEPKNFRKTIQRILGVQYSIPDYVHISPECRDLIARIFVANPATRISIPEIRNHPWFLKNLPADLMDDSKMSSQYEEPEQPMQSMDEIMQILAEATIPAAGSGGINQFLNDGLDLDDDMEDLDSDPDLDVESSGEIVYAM


Key:
[1] = target: T1, VN-SAPK10 (rice (Oryza sativa)); test: split reporter; BiFC with Venus halves (VN, VC) co-expressed in rice protoplasts; confocal microscopy; ER-mCherry as internal control, Venus signal/mCherry signal
[2] = target: N-terminal 25 amino acid deletion of OsSLAC1 (Δ25), GFP fusion (rice (Oryza sativa)); test: co-IP; GFP fusion and Flag- or HA-tagged protein co-expressed in rice protoplasts; cellular extracts on GFP-trap beads, 4 °C, 2 h; 150 mM NaCl, 50 mM Tris-HCl pH 7.5, 0.5% NP40, 0.5% Triton X-100; immunoblot
[3] = target: Δ35 N-terminal deletion of N-OsSLAC1-GFP (rice (Oryza sativa)); test: as above
[4] = target: Δ50 N-terminal deletion of N-OsSLAC1-GFP (rice (Oryza sativa)); test: as above
[5] = target: VC-OsSLAC1 (rice (Oryza sativa)); test: split reporter; BiFC with Venus halves (VN, VC) co-expressed in rice protoplasts; confocal microscopy; ER-mCherry as internal control, Venus signal/mCherry signal

Molecule	binding [1]	binding [2]	binding [3]	binding [4]	binding [5]
OsSar1p-VC	no binding				
OsPP2C50-HA (protein, UniProt Q6L5H6 1-387) MAAAAAAAAICGEDETAARVGCTGEWAGGIERVDLGERKEAVAAAGAGKRSVYLMDCAPVWGCASTRGRSAEMEDASAAVPRFADVPVRLLASRRDLDALGLDADALRLPAHLFGVFDGHGGAEVANYCRERIHVVLSEELKRLGKNLGEMGEVDMKEHWDDVFTKCFQRVDDEVSGRVTRVVNGGGEVRSEPVTAENVGSTAVVALVCSSHVVVANCGDSRIVLCRGKEPVALSIDHKPDRKDERARIEAQGGKVIQWNGYRVSGILAMSRSIGDRYLKPFVIPKPEVMVVPRAKDDDCLILASDGLWDVVSNEEACKVARRQILLWHKNNGAASPLSDEGEGSTDPAAQAAADYLMRLALKKGSEDNITVIVVDLKPRKKLKNIS		binds	no binding	no binding	
OsPP2C53-HA (protein, UniProt Q6L4R7 1-445) MEDLALPAAPPAPTLSFTLLAAAAAVAEAMEEALGAALPPLTAPVPAPGDDSACGSPCSVASDCSSVASADFEGFAELGTSLLAGPAVLFDDLTAASVAVAEAAEPRAVGATARSVFAMDCVPLWGLESICGRRPEMEDDYAVVPRFFDLPLWMVAGDAAVDGLDRASFRLPAHFFAVYDGHGGVQVANYCRKRIHAVLTEELRRAEDDACGSDLSGLESKKLWEKAFVDCFSRVDAEVGGNAASGAPPVAPDTVGSTAVVAVVCSSHVIVANCGDSRAVLCRGKQPLPLSLDHKPNREDEYARIEALGGKVIQWNGYRVLGVLAMSRSIGDKYLKPYIIPVPEVTVVARAKDDDCLILASDGLWDVMSNEEVCDAARKRILLWHKKNAATASTSSAQISGDSSDPAAQAAADYLSKLALQKGSKDNITVVVIDLKAHRKFKSKA		binds	no binding	no binding	
VN-SAPK10 (protein, UniProt Q75H77 1-362) MDRAALTVGPGMDMPIMHDGDRYELVRDIGSGNFGVARLMRSRADGQLVAVKYIERGDKIDENVQREIINHRSLRHPNIIRFKEVILTPTHLAIVMEYASGGELFERICNAGRFSEDEARFFFQQLISGVSYCHSMQVCHRDLKLENTLLDGSTAPRLKICDFGYSKSSVLHSQPKSTVGTPAYIAPEVLLKKEYDGKIADVWSCGVTLYVMLVGAYPFEDPDEPKNFRKTIQRILGVQYSIPDYVHISPECRDLIARIFVANPATRISIPEIRNHPWFLKNLPADLMDDSKMSSQYEEPEQPMQSMDEIMQILAEATIPAAGSGGINQFLNDGLDLDDDMEDLDSDPDLDVESSGEIVYAM					binds

No constants are given. Whether binding was seen depends on the method and setting. Binding seen in cells or lysates may run through a third protein. For some assays here: Binding calls can cover weak binding; strength is not graded here. For some assays here: Where a sequence is shown, tags or fusion partners need not be part of it.
